The other results are listed elsewhere or left out. These are further read-outs of the screen, such as a control signal, another cell line or another target. No call is given for them. The list favours compounds with an active or inconclusive main result. Potencies come from curve fits of mixed quality, noted in brackets.
Experiment: qHTS Assay for Modulators of Lamin A Splicing
Conditions: HeLa LMNA splicing GFP/RFP minigene ratio, 48 h
Summary of the method: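 S3 HeLa cells stably expressing lamin A-EGFP splicing minigene plus DsRed2, 600 cells/well, 48 h compound exposure at 37C. Laser-scanning cytometry; analysed as GFP (500-530 nm)/RFP (575-640 nm) total intensity ratio; 0.5% DMSO vehicle.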

[1] = measured here: RFP viability control channel
[2] = measured here: GFP splicing reporter channel

| Structure (SMILES) | AC50 [1] | AC50 [2] |
| --- | --- | --- |
| COc1ccc2c(c1)O[C@@H](c1cccc(C(F)(F)F)c1)[C@H](OC(=O)N[C@H]1CCCc3ccccc31)C2=O | 14.1 µM [rising, partial curve] |  |
| Cn1cc(C(=O)N/N=C/C(Br)=C/c2ccccc2)ccc1=O | 7.08 µM [rising, partial curve, poor fit] |  |
| O=C(Cc1ccc(S(=O)(=O)N2CCOCC2)s1)Nc1ccc2c(c1)CCC2 | 25.1 µM [rising, single point] |  |
| C=CCN1C(=O)C2C(C(=O)NC3CCCCC3)C3C=CC2(O3)C1C(=O)NC1CCCC1 (stereo not drawn) | 0.794 µM [falling, full curve, poor fit] | 0.794 µM [falling, full curve, poor fit] |
| CCCC(=O)Nc1sc(C(=O)Nc2cccc(N)c2)c(C)c1C(=O)OC | 0.0631 µM [rising, full curve, poor fit] | 0.0316 µM [rising, full curve, poor fit] |
| COc1cccc(COCC(O)Cn2cnc3cc(C)c(C)cc32)c1 (stereo not drawn) |  | 17.8 µM [falling, partial curve, poor fit] |
| Cn1ncc(Br)c1C(=O)NC1C2CC3CC(C2)CC1C3 (stereo not drawn) | 14.1 µM [rising, single point] | 3.16 µM [rising, partial curve, poor fit] |
| C=CCNC(=O)/C(C#N)=C/c1cc(Br)ccc1OC | 12.6 µM [falling, partial curve] | 22.4 µM [falling, single point] |
| Cc1ccc(OCc2nnc(SCc3nc4ccccc4[nH]3)n2Cc2ccco2)cc1 | 6.31 µM [rising, full curve] |  |
| Cc1cc(C(=O)c2ccc(Cl)cc2)c(NC(=O)CCl)s1 | 25.1 µM [falling, single point] | 17.8 µM [falling, single point] |
| O=C(Nc1ccc(O)c(-c2nc3ccccc3s2)c1)c1cccs1 | 0.631 µM [rising, partial curve] | 3.55 µM [rising, partial curve] |
| COc1ccc(CCC(=O)NCc2ccc3c(c2)CCN3C(=O)c2ccccc2)cc1 |  | 2.51 µM [falling, partial curve, poor fit] |
| COc1ccc2[nH]cc(CCNc3ccnc(-c4cccnc4)n3)c2c1 |  | 12.6 µM [falling, partial curve] |
| Oc1[nH]c2c(Cl)cc(Cl)cc2c1N=NC(=S)NCC1CCCO1 (stereo not drawn) | 10 µM [rising, partial curve] | 7.08 µM [rising, full curve, poor fit] |
| Cc1ccc(-c2nn(-c3ccccc3)cc2/C=C/C(=O)OCC(=O)NC2CC2)o1 | 0.631 µM [falling, full curve] | 3.16 µM [falling, partial curve] |
| CCOc1ccc(C(=O)N2CCN(c3cccc(C)c3C)CC2)cc1 | 17.8 µM [rising, partial curve] | 14.1 µM [rising, partial curve] |
| O=C(Nc1cccc(S(=O)(=O)N2CCOCC2)c1)c1ccc(N2CCOCC2)c([N+](=O)[O-])c1 | 5.62 µM [rising, single point] |  |

| Structure (SMILES) | AC50 [1] | AC50 [2] |
| --- | --- | --- |
| CC1CCCC(NC(=O)c2ccc(CNc3c(N4CCCC4)c(=O)c3=O)cc2)C1C (stereo not drawn) | 14.1 µM [rising, partial curve, poor fit] |  |
| Cc1cnc(NC(=O)CN2CCN(c3ccccn3)CC2)s1 | 35.5 µM [falling, single point] | 35.5 µM [falling, single point] |
| CCOC(=O)c1[nH]c(C)c(C(=O)Nc2ccc(C)cc2C)c1C | 6.31 µM [rising, full curve] |  |
| COc1ccc(/C=C(\NC(=O)c2ccc(OCC(C)C)cc2)C(=O)OCc2ccco2)cc1 | 3.98 µM [rising, full curve, poor fit] |  |
| CN=C(NC#N)Nc1ccc(C2=NNC(=O)CC2C)cc1 (stereo not drawn) | 10 µM [rising, partial curve, poor fit] |  |
| CC(C)c1nc2ccc(C(=O)NCCCN3CCN(c4cccc(Cl)c4)CC3)cc2o1 | 35.5 µM [falling, partial curve, poor fit] | 35.5 µM [falling, partial curve] |
| Cc1ccc(/C=C2\SC(N3CCN(C(c4ccccc4)c4ccccc4)CC3)=NC2=O)o1 | 3.16 µM [falling, partial curve] | 1.41 µM [falling, full curve, poor fit] |
| c1cnc(N2CCN(c3ncnc4c3oc3ccccc34)CC2)nc1 | 17.8 µM [rising, partial curve] |  |
| COC(=O)c1c(N2C(=O)Nc3ccccc3N2O)sc2c1CCCC2 | 14.1 µM [rising, single point] |  |
| CCOC(=O)C1CCC(CN(Cc2ccc(Cl)cc2)S(=O)(=O)c2cc(Cl)cc(Cl)c2)CC1 (stereo not drawn) | 3.98 µM [rising, single point] |  |
| COCCn1c(CN2CCc3ccccc3C2)nc2c1c(=O)n(C)c(=O)n2C |  | 0.158 µM [rising, full curve, poor fit] |
| CCOc1ccccc1NC(=O)Cn1nnc(C(=O)NCc2ccco2)c1N | 1.41 µM [falling, partial curve] | 0.891 µM [falling, full curve, poor fit] |
| O=c1c(-c2ccc(Cl)cc2)nc2cnc(N3CCNCC3)nc2n1CCc1ccccc1 | 20 µM [falling, partial curve] | 20 µM [falling, partial curve] |
| O=C(Oc1ccccc1N1C(=O)CCC1=O)c1ccco1 |  | 0.447 µM [rising, full curve, poor fit] |
| COc1ccc([N+](=O)[O-])cc1NC(=O)Cc1noc2ccccc12 | 22.4 µM [falling, single point] |  |
| CCOC(=O)c1c(S(=O)(=O)NCC(=O)Nc2ccc(C)c(N(C)C)c2)c(C)n(C)c1C | 10 µM [rising, partial curve, poor fit] | 15.8 µM [rising, partial curve, poor fit] |

Reformatted comma-delimited: part of the list above.
Structure (SMILES),AC50 [1],AC50 [2]
CC(C)c1nc2ccc(C(=O)NCCCN3CCN(c4cccc(Cl)c4)CC3)cc2o1,"35.5 µM [falling, partial curve, poor fit]","35.5 µM [falling, partial curve]"
Cc1ccc(/C=C2\SC(N3CCN(C(c4ccccc4)c4ccccc4)CC3)=NC2=O)o1,"3.16 µM [falling, partial curve]","1.41 µM [falling, full curve, poor fit]"
